In publication PMC3182252:
No constants are given. Whether binding was seen depends on the method and setting. In cells and extracts the contact can be indirect. Here binding means that the protein was enriched with, or labelled near, the bait; the list need not be complete.

Amino acid sequences for entries named in this document (tags omitted). Residues count along the entry.
UniProt P35968, residues 20-1356: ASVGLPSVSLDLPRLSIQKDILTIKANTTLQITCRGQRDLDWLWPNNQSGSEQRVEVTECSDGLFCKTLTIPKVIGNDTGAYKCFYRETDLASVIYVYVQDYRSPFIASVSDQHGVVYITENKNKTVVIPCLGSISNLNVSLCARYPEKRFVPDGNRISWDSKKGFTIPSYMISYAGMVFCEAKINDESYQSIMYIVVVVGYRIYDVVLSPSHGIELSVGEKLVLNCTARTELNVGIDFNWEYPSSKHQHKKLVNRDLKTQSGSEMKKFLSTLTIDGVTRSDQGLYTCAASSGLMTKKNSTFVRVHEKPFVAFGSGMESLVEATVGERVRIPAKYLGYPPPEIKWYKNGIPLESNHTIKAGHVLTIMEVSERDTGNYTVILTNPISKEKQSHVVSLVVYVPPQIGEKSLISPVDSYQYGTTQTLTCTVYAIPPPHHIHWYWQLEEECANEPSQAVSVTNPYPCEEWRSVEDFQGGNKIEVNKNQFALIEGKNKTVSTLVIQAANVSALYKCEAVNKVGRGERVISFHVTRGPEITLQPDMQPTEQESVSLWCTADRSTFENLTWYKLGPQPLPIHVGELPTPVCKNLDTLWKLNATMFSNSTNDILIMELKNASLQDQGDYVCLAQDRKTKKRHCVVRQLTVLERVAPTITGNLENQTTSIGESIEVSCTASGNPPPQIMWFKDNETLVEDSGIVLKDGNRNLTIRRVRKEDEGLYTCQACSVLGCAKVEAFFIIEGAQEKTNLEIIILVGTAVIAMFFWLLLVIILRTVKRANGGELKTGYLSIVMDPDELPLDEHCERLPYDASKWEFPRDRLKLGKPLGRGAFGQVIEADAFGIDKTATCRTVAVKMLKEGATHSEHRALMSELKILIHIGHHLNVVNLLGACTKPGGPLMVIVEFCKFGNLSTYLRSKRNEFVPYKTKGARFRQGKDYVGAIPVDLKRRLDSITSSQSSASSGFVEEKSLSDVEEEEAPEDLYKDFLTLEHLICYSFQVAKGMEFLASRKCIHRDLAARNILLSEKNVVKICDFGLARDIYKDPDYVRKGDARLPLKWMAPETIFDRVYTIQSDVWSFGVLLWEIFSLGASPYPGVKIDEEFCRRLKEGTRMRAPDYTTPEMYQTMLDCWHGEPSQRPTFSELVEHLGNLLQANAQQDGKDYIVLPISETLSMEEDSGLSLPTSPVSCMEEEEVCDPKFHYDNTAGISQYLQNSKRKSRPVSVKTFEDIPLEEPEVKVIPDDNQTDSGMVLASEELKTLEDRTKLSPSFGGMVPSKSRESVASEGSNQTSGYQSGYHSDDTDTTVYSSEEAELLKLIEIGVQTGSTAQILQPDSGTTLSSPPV
UniProt P08047: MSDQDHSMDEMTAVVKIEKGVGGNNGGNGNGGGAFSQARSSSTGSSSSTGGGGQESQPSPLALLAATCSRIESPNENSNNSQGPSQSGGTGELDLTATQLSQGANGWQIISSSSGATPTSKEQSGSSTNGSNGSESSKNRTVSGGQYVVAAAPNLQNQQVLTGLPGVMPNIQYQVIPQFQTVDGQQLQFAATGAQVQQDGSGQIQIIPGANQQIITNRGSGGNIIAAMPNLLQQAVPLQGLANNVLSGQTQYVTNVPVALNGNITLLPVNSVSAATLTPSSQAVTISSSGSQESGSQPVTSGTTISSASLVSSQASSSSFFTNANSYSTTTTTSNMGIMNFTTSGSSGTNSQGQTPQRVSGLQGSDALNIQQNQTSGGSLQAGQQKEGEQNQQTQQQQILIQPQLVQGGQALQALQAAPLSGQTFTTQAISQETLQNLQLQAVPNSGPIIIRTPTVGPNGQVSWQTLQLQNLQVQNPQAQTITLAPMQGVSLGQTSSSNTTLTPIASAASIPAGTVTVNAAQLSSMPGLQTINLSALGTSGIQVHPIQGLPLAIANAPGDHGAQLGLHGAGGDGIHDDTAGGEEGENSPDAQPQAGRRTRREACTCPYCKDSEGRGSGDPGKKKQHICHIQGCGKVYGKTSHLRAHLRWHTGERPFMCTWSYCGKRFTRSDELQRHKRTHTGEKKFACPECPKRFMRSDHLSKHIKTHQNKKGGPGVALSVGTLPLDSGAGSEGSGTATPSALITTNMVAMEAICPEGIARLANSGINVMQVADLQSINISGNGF

Biological target: Vascular Endothelial Growth Factor Receptor-2 (VEGFR2), nuclear (human (endogenous in HUVEC)) (UniProt P35968)
Assay: affinity purification with mass spectrometry; IP of 1 mg EC nuclear extract with anti-human VEGFR2, 8% SDS-PAGE, silver staining, in-gel trypsin digestion, nanoflow LC-MS/MS, Mascot search

- binding: binds
Substance: Sp1 transcription factor (from UniProt P08047 1-785)
